Measured data: PubChem BioAssay AID1508597 (Cure First, 2020)
This is an unselected part of the about 2,100 reagents, in one setting of the screen. 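Calls flag viability under 80% in either arm, not effects specific to rucaparib; the reference for percent is not stated.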 A reagent listed more than once was tested more than once; the source does not tell the runs apart. Not stated in the record: the 100% reference.

Purpose: 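Knock-downs altering ovarian cancer cell survival with or without PARP inhibitor rucaparib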 (primary screen)
System: human ovarian carcinoma lines grown from tumours: OCI-P5x (papillary serous) and OCI-C5x (clear cell)
Reagent: siRNA pool against human genes, 1.25 pmol siRNA per well
Timing: 72 h or 96 h, depending on the cell culture
Challenge: rucaparib 20 µM (about IC30) or vehicle, present until read-out
Rucaparib or vehicle: Vehicle
Cell line: OCI-P5x (serous)
Detection: 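Luminescent ATP-based viability assay read 72 or 96 h after transfection, depending on culture, given as normalised percent viability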
Direction: viability, normalised: higher = more viable cells remaining
Call rule: 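a well counts as a hit if its normalised viability is under 80 percent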
Calls: active = viability under 80%; inactive = viability 80% or more

no.	target	technical replicate	viability, normalised (%)	activity call
1	CTPS2	1	114	inactive
2	CTPS2	2	81.9	inactive
3	CTPS2	3	102	inactive
4	HIRA	1	87.2	inactive
5	HIRA	2	89.3	inactive
6	HIRA	3	72.3	active
7	PSKH2	1	88.8	inactive
8	PSKH2	2	81.7	inactive
9	PSKH2	3	86.7	inactive
10	XRCC2	1	64.4	active
11	XRCC2	2	42.4	active
12	XRCC2	3	51.6	active
13	NEK6	1	85.4	inactive
14	NEK6	2	74.3	active
15	NEK6	3	71.6	active
16	KPNA3	1	76	active
17	KPNA3	2	57.6	active
18	KPNA3	3	69.5	active
19	EIF2AK4	1	96.3	inactive
20	EIF2AK4	2	137	inactive
21	EIF2AK4	3	94.4	inactive
22	ERCC3	1	76.3	active
23	ERCC3	1	65	active
24	ERCC3	2	80.5	inactive
25	ERCC3	2	72.1	active
26	ERCC3	3	89.5	inactive
27	ERCC3	3	85.2	inactive
28	FGFR1	1	103	inactive
29	FGFR1	2	89.2	inactive
30	FGFR1	3	98.5	inactive

Continued (8 carried over from the part before).
no.	target	technical replicate	viability, normalised (%)	activity call
23	ERCC3	1	65	active
24	ERCC3	2	80.5	inactive
25	ERCC3	2	72.1	active
26	ERCC3	3	89.5	inactive
27	ERCC3	3	85.2	inactive
28	FGFR1	1	103	inactive
29	FGFR1	2	89.2	inactive
30	FGFR1	3	98.5	inactive
31	HMGB1	1	95.5	inactive
32	HMGB1	2	101	inactive
33	HMGB1	3	93.6	inactive
34	TJP1	1	49.6	active
35	TJP1	2	48.3	active
36	TJP1	3	55.3	active
37	DLG1	1	95.3	inactive
38	DLG1	2	72.1	active
39	DLG1	3	78.8	active
40	BCR	1	116	inactive
41	BCR	2	105	inactive
42	BCR	3	101	inactive
43	SLC1A2	1	75.4	active
44	SLC1A2	2	62.5	active
45	SLC1A2	3	70.6	active
46	PCDHB5	1	68.3	active
47	PCDHB5	2	71.4	active
48	PCDHB5	3	87.3	inactive
49	MTRFR	1	60.1	active
50	MTRFR	2	66.2	active
51	MTRFR	3	73.1	active
52	MYLK	1	78.5	active
53	MYLK	1	105	inactive
54	MYLK	2	88.8	inactive
55	MYLK	2	84.1	inactive
56	MYLK	3	107	inactive
57	MYLK	3	91	inactive
